According to the supplement of paper PMC8256030:
Where “and” joins values, the source holds several entries; their conditions need not be identical. Equal entries are not always repeated. Structures can show the parent of a compound that is named as a salt. The list shows a part of the results. Single values are uncertain here, since repeats match poorly.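 HEK293T cells were given each compound shortly before transfection with a reporter in which red mCherry is followed by the SARS-CoV-2 frameshift element and then GFP in the −1 frame, so GFP appears only after frameshifting.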

tested on: HEK293T; assay: percent viability (nuclei count) relative to control; higher = more viable cells; conditions: 10 µM; 24 h

SMILES	percent viability
CC(NCCC(c1ccccc1)c1ccccc1)c1ccccc1 (stereo not given) [fendiline]	330%
CC[N+]1(CC)CCC(=C(c2ccccc2)c2ccccc2)C1C (stereo not given) [prifinium bromide]	176%
Clc1ccc(C(Cn2ccnc2)OCc2ccsc2Cl)c(Cl)c1 (stereo not given) [tioconazole]	271%
CC(CN1c2ccccc2Sc2cccnc21)N(C)C (stereo not given) [isothipendyl]	62.2%
CCCc1cc(C(N)=S)ccn1 [protionamide]	230% and 187%
C[n+]1c2cc(N)ccc2cc2ccc(N)cc21	49%
CCn1cc(C(=O)O)c(=O)c2ccc(C)nc21 [nalidixic acid]	175%
C#C[C@]1(OC(C)=O)CC[C@H]2[C@@H]3CCC4=C[C@@H](OC(C)=O)CC[C@@H]4[C@H]3CC[C@@]21C	254%
C[C@H](NC(=O)c1cnc2n1[C@](C)(Cc1ccc(C#N)cc1)C(=O)N2c1cc(Cl)c(F)c(Cl)c1)C(=O)NC1(c2ccccn2)CC1	466%
O=C(C(Cl)Cl)N(CCO)Cc1ccc(Oc2ccc([N+](=O)[O-])cc2)cc1 [clefamide]	107%
O=C1C(=O)c2ccccc2C(O)=C1C1CCC(c2ccc(Cl)cc2)CC1 (stereo not given) [Atovaquone]	174%
O=C1/C(=C/c2cccs2)CCC/C1=C\c1cccs1	252%
Cc1c(Nc2ncccc2C(=O)O)cccc1C(F)(F)F	315%
CC(=O)Nc1ccc(OC(C)=O)cc1 [diacetamate]	235%
CC(=O)[C@@]1(C)CC[C@H]2[C@@H]3C=C(C)C4=CC(=O)CC[C@]4(C)[C@H]3CC[C@@]21C [medrogestone]	157%
CCN(CC)C(=O)c1cccnc1 [nikethamide]	261%
CC[C@@H](C(=O)[C@@H](C)[C@@H](O)[C@H](C)CCc1ccc(C)c(O)c1C(=O)O)[C@H]1O[C@](CC)([C@H]2CC[C@](O)(CC)[C@H](C)O2)C[C@@H]1C [lasalocid]	122%
C[C@H]1c2cccc(O)c2C(O)=C2C(=O)[C@]3(O)C(O)=C(C(N)=O)C(=O)[C@@H](N(C)C)[C@@H]3[C@@H](O)[C@@H]21	124%
CCCCCCCCCCCCCCCCCC(=O)OC[C@@H](O)[C@H]1OC[C@H](O)[C@H]1O [sorbitan stearate]	162%
CN(C)CC/C=C1\c2ccccc2CSc2ccccc21 [Dosulepin]	291%

Part of the list above in order of formula weight, ascending:
SMILES	percent viability
CCCc1cc(C(N)=S)ccn1 [protionamide]	230% and 187%
CC(=O)Nc1ccc(OC(C)=O)cc1 [diacetamate]	235%
CCn1cc(C(=O)O)c(=O)c2ccc(C)nc21 [nalidixic acid]	175%
CC(CN1c2ccccc2Sc2cccnc21)N(C)C (stereo not given) [isothipendyl]	62.2%
O=C1/C(=C/c2cccs2)CCC/C1=C\c1cccs1	252%
Cc1c(Nc2ncccc2C(=O)O)cccc1C(F)(F)F	315%
CC[N+]1(CC)CCC(=C(c2ccccc2)c2ccccc2)C1C (stereo not given) [prifinium bromide]	176%
CC(=O)[C@@]1(C)CC[C@H]2[C@@H]3C=C(C)C4=CC(=O)CC[C@]4(C)[C@H]3CC[C@@]21C [medrogestone]	157%
O=C(C(Cl)Cl)N(CCO)Cc1ccc(Oc2ccc([N+](=O)[O-])cc2)cc1 [clefamide]	107%
CCCCCCCCCCCCCCCCCC(=O)OC[C@@H](O)[C@H]1OC[C@H](O)[C@H]1O [sorbitan stearate]	162%
C[C@H]1c2cccc(O)c2C(O)=C2C(=O)[C@]3(O)C(O)=C(C(N)=O)C(=O)[C@@H](N(C)C)[C@@H]3[C@@H](O)[C@@H]21	124%
CC[C@@H](C(=O)[C@@H](C)[C@@H](O)[C@H](C)CCc1ccc(C)c(O)c1C(=O)O)[C@H]1O[C@](CC)([C@H]2CC[C@](O)(CC)[C@H](C)O2)C[C@@H]1C [lasalocid]	122%

(listing goes on)

SMILES	percent viability
CC(CC(c1ccccc1)c1ccccc1)NC(C)(C)C (stereo not given) [terodiline]	64.4%
CCC(C)(Oc1ccc(C2(c3ccc(OC(C)(CC)C(=O)O)cc3)CCCCC2)cc1)C(=O)O (stereo not given) [clinofibrate]	106%
CC(C)NCC(O)COc1ccc(CCOCC2CC2)cc1 (stereo not given) [Betaxolol·HCl]	254%
C[C@]12CCC(=O)C=C1CC[C@@H]1[C@@H]2[C@@H](O)C[C@@]2(C)[C@H]1CC[C@]2(O)C(=O)COP(=O)(O)O	145%
CCOC(=O)c1ccc(N)cc1 [benzocaine]	219%
Cc1cc(C)cc(NC(=O)Cc2ccc(OC(C)(C)C(=O)O)cc2)c1 [efaproxiral]	218%
CC(=O)O[C@]1(C(C)=O)CC[C@H]2[C@@H]3C=C(C)C4=CC(=O)CC[C@]4(C)[C@H]3CC[C@@]21C [Megestrol Acetate]	147%
C=C[C@@]1(C)CC(=O)[C@]2(O)[C@@]3(C)[C@@H](O)CCC(C)(C)[C@@H]3[C@H](O)[C@H](OC(C)=O)[C@@]2(C)O1	363%
CCCSc1ccc2[nH]c(NC(=O)OC)nc2c1 [albendazole]	44.1% and 20%
CCOC(=O)c1cnc2cc(OCC(C)C)c(OCC(C)C)cc2c1O [buquinolate]	164%
CN1CCCCC1CCN1c2ccccc2Sc2ccc(S(C)(=O)=O)cc21 (stereo not given) [sulforidazine]	296%
CCC[C@@H]1C[C@@H](C(=O)N[C@@H]([C@H]2O[C@H](SC)[C@H](O)[C@@H](O)[C@H]2O)[C@@H](C)O)N(C)C1 [Lincomycin]	174%
CC(C)NC[C@H](O)COc1ccc(CCOCC2CC2)cc1 [levobetaxolol]	178%
N#Cc1c[nH]c2c(C(=O)N3CCN(CCc4ccc(F)cc4)CC3)cccc12 [pruvanserin]	122%
CN1CCN(CC/C=C2/c3ccccc3Sc3ccc(S(=O)(=O)N(C)C)cc32)CC1	116%
Nc1ccc(S(=O)(=O)c2ccc(N)cc2)cc1 [dapsone]	102%
CCOC1O[C@H]([C@@H](COCc2ccccc2)OCc2ccccc2)[C@H](OCc2ccccc2)[C@H]1O (stereo not given in full)	213%
CCOc1ccccc1OC(c1ccccc1)C1CNCCO1 (stereo not given) [reboxetine]	288%
CCCN[C@H]1CCc2nc(N)sc2C1 [pramipexole]	86.4%
OCCN1C[C@H](O)[C@@H](O)[C@H](O)[C@H]1CO [miglitol]	274%
